Results on 36 targets are retold here after the supplement of paper PMC7666118.

Protein sequences, listed by entry. Tags and fused reporters are not part of them. Lines headed by an entry give the natural chain unless they say otherwise; changes in a name come on top.
UniProt O15084: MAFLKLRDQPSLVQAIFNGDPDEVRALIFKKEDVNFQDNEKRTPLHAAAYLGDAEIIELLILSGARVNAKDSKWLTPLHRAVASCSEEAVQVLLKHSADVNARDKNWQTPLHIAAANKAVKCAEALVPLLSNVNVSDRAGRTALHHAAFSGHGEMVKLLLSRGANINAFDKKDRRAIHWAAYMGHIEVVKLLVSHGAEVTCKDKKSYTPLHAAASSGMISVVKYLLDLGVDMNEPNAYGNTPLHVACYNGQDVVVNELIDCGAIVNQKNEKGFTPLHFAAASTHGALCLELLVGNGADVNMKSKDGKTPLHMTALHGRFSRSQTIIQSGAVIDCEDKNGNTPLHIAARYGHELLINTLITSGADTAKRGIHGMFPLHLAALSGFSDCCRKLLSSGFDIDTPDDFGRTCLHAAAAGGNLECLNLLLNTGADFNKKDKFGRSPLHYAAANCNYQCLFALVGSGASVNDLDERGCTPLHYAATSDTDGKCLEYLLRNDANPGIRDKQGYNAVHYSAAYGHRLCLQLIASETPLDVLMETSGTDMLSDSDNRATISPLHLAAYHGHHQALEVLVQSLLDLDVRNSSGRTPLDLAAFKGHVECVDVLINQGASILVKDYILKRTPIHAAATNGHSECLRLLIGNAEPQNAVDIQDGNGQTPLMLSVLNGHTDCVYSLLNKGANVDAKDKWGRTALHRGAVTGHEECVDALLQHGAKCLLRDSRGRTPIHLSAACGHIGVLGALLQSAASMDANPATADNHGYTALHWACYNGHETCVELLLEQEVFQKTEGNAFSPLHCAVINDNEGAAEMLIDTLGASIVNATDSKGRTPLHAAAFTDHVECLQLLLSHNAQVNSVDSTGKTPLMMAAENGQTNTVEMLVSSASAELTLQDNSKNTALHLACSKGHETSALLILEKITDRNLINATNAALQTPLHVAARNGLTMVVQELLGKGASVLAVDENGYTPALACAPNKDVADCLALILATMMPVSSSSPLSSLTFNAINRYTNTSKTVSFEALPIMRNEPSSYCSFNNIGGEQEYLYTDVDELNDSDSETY
UniProt Q8NFV4: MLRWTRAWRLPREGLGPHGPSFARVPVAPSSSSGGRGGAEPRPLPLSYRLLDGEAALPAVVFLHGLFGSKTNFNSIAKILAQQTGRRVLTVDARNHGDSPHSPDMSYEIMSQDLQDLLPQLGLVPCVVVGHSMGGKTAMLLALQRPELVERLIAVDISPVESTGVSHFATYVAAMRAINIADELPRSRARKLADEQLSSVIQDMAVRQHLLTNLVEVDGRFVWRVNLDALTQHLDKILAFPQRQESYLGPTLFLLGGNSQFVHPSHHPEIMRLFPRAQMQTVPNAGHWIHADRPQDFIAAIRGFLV
UniProt Q5VTE6: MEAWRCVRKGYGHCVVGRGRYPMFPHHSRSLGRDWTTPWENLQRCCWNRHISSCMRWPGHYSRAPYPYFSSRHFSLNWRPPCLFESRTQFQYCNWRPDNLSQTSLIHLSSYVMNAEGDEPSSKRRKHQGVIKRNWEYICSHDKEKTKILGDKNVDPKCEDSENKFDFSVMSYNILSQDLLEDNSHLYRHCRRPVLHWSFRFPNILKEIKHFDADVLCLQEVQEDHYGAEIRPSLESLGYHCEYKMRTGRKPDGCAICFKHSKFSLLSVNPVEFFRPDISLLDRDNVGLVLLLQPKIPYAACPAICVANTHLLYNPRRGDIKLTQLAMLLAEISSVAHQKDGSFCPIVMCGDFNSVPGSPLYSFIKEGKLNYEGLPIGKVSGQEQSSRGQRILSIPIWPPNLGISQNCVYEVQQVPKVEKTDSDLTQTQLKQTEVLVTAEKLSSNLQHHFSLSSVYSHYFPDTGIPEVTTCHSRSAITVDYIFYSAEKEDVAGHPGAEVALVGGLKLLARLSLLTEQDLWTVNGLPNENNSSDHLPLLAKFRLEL
UniProt P17707: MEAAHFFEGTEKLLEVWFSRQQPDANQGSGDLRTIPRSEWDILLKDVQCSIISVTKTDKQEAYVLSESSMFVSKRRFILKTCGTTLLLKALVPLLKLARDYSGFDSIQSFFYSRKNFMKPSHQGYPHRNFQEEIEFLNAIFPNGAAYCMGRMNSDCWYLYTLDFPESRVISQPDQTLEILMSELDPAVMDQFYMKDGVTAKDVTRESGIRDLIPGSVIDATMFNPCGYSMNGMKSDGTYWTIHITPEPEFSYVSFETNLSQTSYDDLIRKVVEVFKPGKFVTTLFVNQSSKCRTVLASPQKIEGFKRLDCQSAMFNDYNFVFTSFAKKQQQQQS
UniProt P55263: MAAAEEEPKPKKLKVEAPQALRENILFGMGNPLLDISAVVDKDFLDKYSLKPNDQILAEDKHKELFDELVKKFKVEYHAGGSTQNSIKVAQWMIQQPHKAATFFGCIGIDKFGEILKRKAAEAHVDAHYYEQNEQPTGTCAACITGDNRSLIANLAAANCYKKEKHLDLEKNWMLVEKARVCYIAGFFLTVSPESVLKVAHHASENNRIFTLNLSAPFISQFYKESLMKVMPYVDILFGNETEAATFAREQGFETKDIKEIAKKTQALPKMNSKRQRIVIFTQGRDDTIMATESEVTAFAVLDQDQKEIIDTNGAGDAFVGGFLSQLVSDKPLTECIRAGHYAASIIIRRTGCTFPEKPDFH
UniProt Q92572: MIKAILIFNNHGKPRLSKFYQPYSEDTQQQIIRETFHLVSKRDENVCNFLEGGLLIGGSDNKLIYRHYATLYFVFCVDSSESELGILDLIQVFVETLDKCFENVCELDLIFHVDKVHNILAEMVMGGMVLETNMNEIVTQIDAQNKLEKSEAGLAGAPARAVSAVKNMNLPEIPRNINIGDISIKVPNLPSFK
UniProt Q9ULX6: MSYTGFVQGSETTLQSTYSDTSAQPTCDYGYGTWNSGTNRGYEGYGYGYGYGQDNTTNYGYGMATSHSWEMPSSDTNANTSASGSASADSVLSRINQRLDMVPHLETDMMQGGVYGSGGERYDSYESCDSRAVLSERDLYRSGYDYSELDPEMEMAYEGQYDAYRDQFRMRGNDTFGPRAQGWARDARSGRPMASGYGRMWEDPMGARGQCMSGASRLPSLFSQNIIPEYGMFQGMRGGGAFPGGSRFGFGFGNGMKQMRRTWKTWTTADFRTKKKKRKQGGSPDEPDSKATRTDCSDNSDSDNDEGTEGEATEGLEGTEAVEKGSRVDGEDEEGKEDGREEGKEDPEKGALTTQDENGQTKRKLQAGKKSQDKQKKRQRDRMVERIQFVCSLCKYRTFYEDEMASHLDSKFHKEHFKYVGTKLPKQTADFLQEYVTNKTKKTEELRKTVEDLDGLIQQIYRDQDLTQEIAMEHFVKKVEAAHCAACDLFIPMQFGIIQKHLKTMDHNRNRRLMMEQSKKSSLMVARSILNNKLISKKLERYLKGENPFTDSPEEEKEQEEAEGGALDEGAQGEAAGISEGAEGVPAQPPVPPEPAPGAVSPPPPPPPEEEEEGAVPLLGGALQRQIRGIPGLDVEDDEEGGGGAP
UniProt Q96AP0: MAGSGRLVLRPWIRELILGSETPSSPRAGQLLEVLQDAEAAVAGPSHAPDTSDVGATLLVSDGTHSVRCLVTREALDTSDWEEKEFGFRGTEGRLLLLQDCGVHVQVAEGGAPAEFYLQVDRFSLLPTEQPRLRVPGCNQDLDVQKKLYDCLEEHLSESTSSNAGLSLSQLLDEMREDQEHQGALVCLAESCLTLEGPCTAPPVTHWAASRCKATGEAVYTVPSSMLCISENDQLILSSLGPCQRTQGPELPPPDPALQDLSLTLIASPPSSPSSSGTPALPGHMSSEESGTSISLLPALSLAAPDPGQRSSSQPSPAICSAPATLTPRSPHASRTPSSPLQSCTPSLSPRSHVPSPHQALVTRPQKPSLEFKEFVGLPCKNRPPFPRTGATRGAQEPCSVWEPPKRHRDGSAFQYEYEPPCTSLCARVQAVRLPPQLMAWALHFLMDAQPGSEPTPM
UniProt Q6P4F7: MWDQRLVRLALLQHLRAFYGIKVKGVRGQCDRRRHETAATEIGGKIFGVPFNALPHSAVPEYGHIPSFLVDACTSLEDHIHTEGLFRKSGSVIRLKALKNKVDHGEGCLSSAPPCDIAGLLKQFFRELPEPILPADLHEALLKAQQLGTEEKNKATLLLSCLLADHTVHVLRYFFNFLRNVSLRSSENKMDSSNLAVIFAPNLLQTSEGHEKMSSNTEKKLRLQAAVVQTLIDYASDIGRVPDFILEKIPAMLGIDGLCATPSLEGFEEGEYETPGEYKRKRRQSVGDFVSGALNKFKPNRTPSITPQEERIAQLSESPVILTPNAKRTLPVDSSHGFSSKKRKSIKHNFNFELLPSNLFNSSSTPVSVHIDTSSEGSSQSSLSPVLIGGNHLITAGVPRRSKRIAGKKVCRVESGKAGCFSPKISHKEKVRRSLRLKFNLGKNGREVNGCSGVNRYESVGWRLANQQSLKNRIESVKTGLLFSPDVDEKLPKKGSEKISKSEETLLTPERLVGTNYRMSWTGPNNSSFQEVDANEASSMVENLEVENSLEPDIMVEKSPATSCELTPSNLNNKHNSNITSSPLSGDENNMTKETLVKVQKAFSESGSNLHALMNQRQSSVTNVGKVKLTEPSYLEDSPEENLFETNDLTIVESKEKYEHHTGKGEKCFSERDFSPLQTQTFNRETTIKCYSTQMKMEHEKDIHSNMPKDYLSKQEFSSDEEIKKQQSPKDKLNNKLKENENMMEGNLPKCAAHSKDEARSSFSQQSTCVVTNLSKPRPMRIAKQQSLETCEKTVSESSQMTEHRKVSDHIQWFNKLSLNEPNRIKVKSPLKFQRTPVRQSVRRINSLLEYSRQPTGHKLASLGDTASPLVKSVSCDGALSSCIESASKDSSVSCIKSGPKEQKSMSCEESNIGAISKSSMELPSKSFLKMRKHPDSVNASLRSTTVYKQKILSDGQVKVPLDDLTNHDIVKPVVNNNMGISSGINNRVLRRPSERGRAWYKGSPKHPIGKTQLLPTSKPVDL
UniProt P12814, whole entry: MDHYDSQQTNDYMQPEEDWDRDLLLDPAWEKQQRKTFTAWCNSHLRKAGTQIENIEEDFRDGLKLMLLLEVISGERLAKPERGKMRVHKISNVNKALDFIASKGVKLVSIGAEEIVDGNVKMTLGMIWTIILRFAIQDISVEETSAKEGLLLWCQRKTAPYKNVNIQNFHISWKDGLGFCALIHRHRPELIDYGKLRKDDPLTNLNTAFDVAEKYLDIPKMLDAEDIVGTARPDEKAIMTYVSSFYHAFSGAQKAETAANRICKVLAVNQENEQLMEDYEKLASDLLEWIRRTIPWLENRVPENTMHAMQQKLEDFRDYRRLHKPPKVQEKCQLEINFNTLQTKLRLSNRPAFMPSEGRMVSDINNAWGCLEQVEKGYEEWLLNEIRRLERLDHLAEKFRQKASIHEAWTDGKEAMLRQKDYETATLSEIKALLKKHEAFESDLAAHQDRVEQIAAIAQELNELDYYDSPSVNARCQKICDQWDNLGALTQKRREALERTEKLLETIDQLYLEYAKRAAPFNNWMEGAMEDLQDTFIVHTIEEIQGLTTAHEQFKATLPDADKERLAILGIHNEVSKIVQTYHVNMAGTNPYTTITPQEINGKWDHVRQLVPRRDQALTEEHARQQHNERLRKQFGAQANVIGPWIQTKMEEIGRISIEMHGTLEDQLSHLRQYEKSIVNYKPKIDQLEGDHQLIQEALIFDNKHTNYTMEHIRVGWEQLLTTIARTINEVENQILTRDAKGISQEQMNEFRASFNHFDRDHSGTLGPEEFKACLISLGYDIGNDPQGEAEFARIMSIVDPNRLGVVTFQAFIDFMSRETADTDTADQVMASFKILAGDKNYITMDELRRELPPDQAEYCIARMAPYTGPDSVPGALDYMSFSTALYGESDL
UniProt P27695, whole entry: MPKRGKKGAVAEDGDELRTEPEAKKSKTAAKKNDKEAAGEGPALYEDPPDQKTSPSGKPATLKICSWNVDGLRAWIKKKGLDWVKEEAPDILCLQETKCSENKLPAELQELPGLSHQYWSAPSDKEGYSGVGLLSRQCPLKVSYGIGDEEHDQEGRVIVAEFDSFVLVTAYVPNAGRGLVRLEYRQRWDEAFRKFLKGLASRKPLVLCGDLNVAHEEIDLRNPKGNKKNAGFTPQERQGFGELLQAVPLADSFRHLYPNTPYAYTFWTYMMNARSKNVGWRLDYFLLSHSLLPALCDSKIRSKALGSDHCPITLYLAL
UniProt P09110: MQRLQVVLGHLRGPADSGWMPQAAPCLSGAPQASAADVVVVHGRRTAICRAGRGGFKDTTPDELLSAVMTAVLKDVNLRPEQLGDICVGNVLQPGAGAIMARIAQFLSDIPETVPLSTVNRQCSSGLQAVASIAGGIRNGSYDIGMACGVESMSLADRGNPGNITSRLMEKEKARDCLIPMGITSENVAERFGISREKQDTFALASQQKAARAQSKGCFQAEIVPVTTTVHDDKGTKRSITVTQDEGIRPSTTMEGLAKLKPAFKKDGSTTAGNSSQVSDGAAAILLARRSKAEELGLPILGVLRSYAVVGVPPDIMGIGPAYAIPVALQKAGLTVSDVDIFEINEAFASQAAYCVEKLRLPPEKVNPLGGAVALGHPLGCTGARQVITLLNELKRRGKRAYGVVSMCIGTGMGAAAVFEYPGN

Some of the results follow.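 The calls were made as follows: active = dose-dependent thermal stabilisation significant by F-test of dose-response against flat model at 10% FDR; inactive = not significant.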

Compound in this test: Nc1nc2c(ncn2[C@@H]2O[C@H](COP(=O)(O)OP(=O)(O)OP(=O)(O)O)[C@@H](O)[C@H]2O)c(=O)[nH]1
In words: dose-dependent thermal stabilisation call (2D-TPP, DLPTP, 10% FDR) (binary (1 = stabilised)); higher = stabilised by the compound. The conditions noted are these: system: Jurkat gel-filtered lysate; concentration range 1-500 µM.
For ACAP1 (UniProt Q15027), the “dose-dependent thermal stabilisation call” value is active: 1. With ANKRD28 (UniProt O15084) the figure was inactive: 0; with AKR1C3 (UniProt P42330), inactive: 0; with ABHD11 (UniProt Q8NFV4), inactive: 0. Regarding ANGEL2 (UniProt Q5VTE6), the “dose-dependent thermal stabilisation call” value was inactive: 0. Take ARFIP2 (UniProt P53365): the “dose-dependent thermal stabilisation call” value is inactive: 0. Turning to AP3B1 (UniProt O00203), the “dose-dependent thermal stabilisation call” value was inactive: 0. With AMD1 (UniProt P17707) the figure was inactive: 0; with APEH (UniProt P13798), inactive: 0; with ABR (UniProt Q12979), active: 1. With ADK (UniProt P55263), the “dose-dependent thermal stabilisation call” value was inactive: 0.

On to ACIN1 (UniProt Q9UKV3), for which the “dose-dependent thermal stabilisation call” value is inactive: 0. Consider ADH5 (UniProt P11766), for which the “dose-dependent thermal stabilisation call” value is inactive: 0. On to AGO3 (UniProt Q9H9G7), for which the “dose-dependent thermal stabilisation call” value is inactive: 0. Consider ABRACL (UniProt Q9P1F3), for which the “dose-dependent thermal stabilisation call” value was inactive: 0. Next, AEBP2 (UniProt Q6ZN18): active: 1; AP3S1 (UniProt Q92572): active: 1. On to AKAP8L (UniProt Q9ULX6), for which the “dose-dependent thermal stabilisation call” value was inactive: 0. With ARHGAP12 (UniProt Q8IWW6) the figure was active: 1; with ACD (UniProt Q96AP0), inactive: 0; with ADPRM (UniProt Q3LIE5), inactive: 0.

On to AKR1C1 (UniProt Q04828), for which the “dose-dependent thermal stabilisation call” value is inactive: 0. On to AFF4 (UniProt Q9UHB7), for which the “dose-dependent thermal stabilisation call” value is inactive: 0.

In the case of ARHGAP11A (UniProt Q6P4F7), the “dose-dependent thermal stabilisation call” value was inactive: 0.

In the case of AGO2 (UniProt Q9UKV8), the “dose-dependent thermal stabilisation call” value is inactive: 0. Next, ALYREF (UniProt Q86V81): inactive: 0. With ADRM1 (UniProt Q16186) the figure was inactive: 0. Next, ACLY (UniProt P53396): inactive: 0; AKR7A2 (UniProt O43488): active: 1; ANXA1 (UniProt P04083): inactive: 0. As to ACTN1 (UniProt P12814), the “dose-dependent thermal stabilisation call” value is inactive: 0. With APEX1 (UniProt P27695) the figure was inactive: 0; with ANKRD52 (UniProt Q8NB46), inactive: 0; with AQR (UniProt O60306), inactive: 0. Next, ANAPC2 (UniProt Q9UJX6): inactive: 0. Next, ACAA1 (UniProt P09110): inactive: 0.
